Source: publication PMC7819943, “Rice protein-binding microarrays: a tool to detect cis-acting elements near promoter regions in rice”
Some of the results follow.

Chains of the proteins cited; added tags and fusions are not shown.
UniProt Q0JBA9, entry or part of it: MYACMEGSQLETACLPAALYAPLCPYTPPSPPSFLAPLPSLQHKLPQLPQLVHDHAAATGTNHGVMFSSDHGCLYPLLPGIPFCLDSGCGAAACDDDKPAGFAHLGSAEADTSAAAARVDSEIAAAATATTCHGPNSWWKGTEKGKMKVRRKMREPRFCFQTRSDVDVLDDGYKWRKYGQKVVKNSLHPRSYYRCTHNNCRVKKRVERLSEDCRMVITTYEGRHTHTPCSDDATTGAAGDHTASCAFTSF

Biological target: OsWRKY34 (Oryza sativa, UniProt Q0JBA9 1-250)
Assay: protein-binding microarray (RPBM); PBS, 2% BSA, 51.3 ng/ul salmon testes DNA, 50 uM zinc acetate, 200 nM TF, 25 C, 1 h; high values mean tight binding
Conditions: protein: recombinant; tags: N-terminal polyhistidine and DsRed monomer fusion (pET32a); label: CyDye5-dUTP incorporated in the synthesized complementary strand; 3' TTTTT single-stranded linker to array surface; dsDNA, one strand shown
Outline: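 Using Ni–NTA, transcription factors fused N-terminally to polyhistidine and DsRed were purified after expression in E. coli BL21-CodonPlus. These were incubated at 200 nM with a blocked, double-stranded custom Agilent array for 1 h at 25 °C in a buffer containing 50 µM zinc acetate, and the array was washed. The binding signal is per-feature fluorescence intensity (arbitrary units) on an Axon 4000B scanner.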

Sequence | binding signal
TCTCTCTCTCTCTCTCTCTTCTCTCTCCTGGCATCTCAGCCGGAGTCACCTAGTGCAG | 9520 fluorescence intensity (a.u.)
GGTTTCCACGCGTCGTTTATTACCTTTGCAGACGGTTTCACGGAGTCACCTAGTGCAG | 10500 fluorescence intensity (a.u.)
CGCGTCTTCTCCATTTCCCATCACATTTCACACGCCCGCACGGAGTCACCTAGTGCAG | 11200 fluorescence intensity (a.u.)
TATGTGATTTTCTTTCCTTAATCTCGTTTTAGGCTAATTACGGAGTCACCTAGTGCAG | 8490 fluorescence intensity (a.u.)
TTCCCCACCACCACCAACCCAGACCGGCCGCGGCCTATATCGGAGTCACCTAGTGCAG | 8270 fluorescence intensity (a.u.)
TATAAACTTAGTCAAACTTGTAGCAGTTTGATTTTGACTACGGAGTCACCTAGTGCAG | 9920 fluorescence intensity (a.u.)
GTATATCACTATTCCCAAACTGGTGTCTACTCTTTACCGTCGGAGTCACCTAGTGCAG | 8920 fluorescence intensity (a.u.)
GTATAATAATTCGTTTAGTTTTACTACTTCACCGTCTCTTCGGAGTCACCTAGTGCAG | 9290 fluorescence intensity (a.u.)
CTACTTCAACGGTGCCTTTTTCTTGGATCTATGGTCGAATCGGAGTCACCTAGTGCAG | 11700 fluorescence intensity (a.u.)
CTCGTGGCTTTGTTGGCCTCACTGCTCACTTGTCCTGTCACGGAGTCACCTAGTGCAG | 8240 fluorescence intensity (a.u.)
CCGGCCCGTTACTACATATCATAGAGTACTATTCATCTTACGGAGTCACCTAGTGCAG | 8610 fluorescence intensity (a.u.)
TTCTGTACTCTAGCTTCTGGTCTCTAGTGTTTCACCACCACGGAGTCACCTAGTGCAG | 8560 fluorescence intensity (a.u.)
CGTCCATTGCCTGCAGAAACGGACGGCGCGGGTGGGTGGGCGGAGTCACCTAGTGCAG | 8950 fluorescence intensity (a.u.)
CCACCGTCGACGCCACCTCCGCCGGCCCCGCCACGCGGCGCGGAGTCACCTAGTGCAG | 8290 fluorescence intensity (a.u.)
ATCGCCGCAACCACCAACCTCTCGAGGCCGTTCGAATCCCCGGAGTCACCTAGTGCAG | 12300 fluorescence intensity (a.u.)
GTGTGTGCGTTTGTGTGTGTATATAGTAGTTAGGCCAATTCGGAGTCACCTAGTGCAG | 11500 fluorescence intensity (a.u.)
TCCGCACTCACAAGCTGTACGATCCGTTCCGTTCGTCCTTCGGAGTCACCTAGTGCAG | 10200 fluorescence intensity (a.u.)
CATCTTCTTTTTCTCGGTATAAATGATTATATCTTAGTTTCGGAGTCACCTAGTGCAG | 8920 fluorescence intensity (a.u.)
TTGGTGGTGGTCTCCATTGCTCCCTTCCTCCCTGCCTTTTCGGAGTCACCTAGTGCAG | 8030 fluorescence intensity (a.u.)
AAGTGCTCATCATCTCATAGTTAGTAAGCTTAGCAAGCATCGGAGTCACCTAGTGCAG | 8240 fluorescence intensity (a.u.)
ACGTGTGGTTGCCGGTTAATACAGCTCCGGCGTTTGACGGCGGAGTCACCTAGTGCAG | 8520 fluorescence intensity (a.u.)

Sequence | binding signal
CATGCCACACTTTCCTACCCTTAGGTCCCACATGTCATATCGGAGTCACCTAGTGCAG | 12200 fluorescence intensity (a.u.)
TCTCTCCATCCATCCCTGCTGCTTCTCCATCTCGCATCTGCGGAGTCACCTAGTGCAG | 16700 fluorescence intensity (a.u.)
ATAGGCGTCGCCGCGTACGCCATTGCCAGCCTCGTCCCAACGGAGTCACCTAGTGCAG | 8310 fluorescence intensity (a.u.)
GCGGGGTGCGAGTGGATGGGTGGGCGTAGCGCGTGTCGTGCGGAGTCACCTAGTGCAG | 10400 fluorescence intensity (a.u.)
GGTATCGTTACTTCATTGTTCCGTTTCGCTGTTTCATTATCGGAGTCACCTAGTGCAG | 14100 fluorescence intensity (a.u.)
GAGATGAACTACTACCGCGAGCGCCACTGCCCCGCGCGCGCGGAGTCACCTAGTGCAG | 8470 fluorescence intensity (a.u.)
TCCCACCACCACTATAATCTCCTCCACTCCCATTCCCTCCCGGAGTCACCTAGTGCAG | 8660 fluorescence intensity (a.u.)
CCGTCGATTTGGTTGGTTGGTTGATCGGCGGCGAGGAGGGCGGAGTCACCTAGTGCAG | 11400 fluorescence intensity (a.u.)
TTGCCATATTAGCTCTCTGTTTCCATGGACTAATTAGCAACGGAGTCACCTAGTGCAG | 9080 fluorescence intensity (a.u.)
CAACCACCTCGCCTCGCCCAGACGCTGACGACTTCACTCCCGGAGTCACCTAGTGCAG | 11600 fluorescence intensity (a.u.)
ACTACCGCTTGAGCTCAAGTTTTGCCGCCACCACCGCAGCCGGAGTCACCTAGTGCAG | 8690 fluorescence intensity (a.u.)
CCCCAACCCACTCACTAACATATGTTTGACTAGTTTGTCACGGAGTCACCTAGTGCAG | 10100 fluorescence intensity (a.u.)
GTCAACCCATACACAACTTGATCTATGTATGTATTGTACGCGGAGTCACCTAGTGCAG | 9270 fluorescence intensity (a.u.)
CTCCTCGGGGCCGCCGCGCCGCGCCTGCCCGCGCCCGACTCGGAGTCACCTAGTGCAG | 10600 fluorescence intensity (a.u.)
TAATACGTTGTCCGCAAATTATACAATTCCTTTTGGCTGTCGGAGTCACCTAGTGCAG | 11100 fluorescence intensity (a.u.)
TGGTTCTATTTGCTTGTCAACCTTTATGATCTTGCGTTATCGGAGTCACCTAGTGCAG | 11500 fluorescence intensity (a.u.)
TGCACAATGCCTTCACTGTCAACACACAACTGTTTGGTCCCGGAGTCACCTAGTGCAG | 9980 fluorescence intensity (a.u.)
AGAGTTTGGCATACTCCTACGTATCATTGTCGACCTTTAGCGGAGTCACCTAGTGCAG | 8340 fluorescence intensity (a.u.)
CTGACTCCTCCCATGTTCCTTCCCTGATATCGTCATAACTCGGAGTCACCTAGTGCAG | 8520 fluorescence intensity (a.u.)
GCTATCTTTTCTCTTGGTCATCATGCTTCCTCCATGGATTCGGAGTCACCTAGTGCAG | 8330 fluorescence intensity (a.u.)
GTCCTAGAGCAGTCCGCTACCTCTATCTGCTCGGCCTATCCGGAGTCACCTAGTGCAG | 13000 fluorescence intensity (a.u.)

Sequence | binding signal
AATCGGATTCGTTCCGGTTTTTTTTCACCCGGTTTTTTTGCGGAGTCACCTAGTGCAG | 8600 fluorescence intensity (a.u.)
CGTCTAATAGAGCCGAGGCCGTACTTGCTATTCCTTTGCACGGAGTCACCTAGTGCAG | 8260 fluorescence intensity (a.u.)
GAGTTTAGTTTAAACTTTTTTTTTCAAACTTCCAACTTTTCGGAGTCACCTAGTGCAG | 8410 fluorescence intensity (a.u.)
CACTAATTTTACCTTAAGATGCCAGGAATTGACTTTTTTTCGGAGTCACCTAGTGCAG | 9930 fluorescence intensity (a.u.)
CCGCGTCTCATTCCATCTACCACTCTAGCCTACTACTCCGCGGAGTCACCTAGTGCAG | 10900 fluorescence intensity (a.u.)
GGACACCCGCCCCGCCTCGCCTCGCCTCTGCCTCTCCCCGCGGAGTCACCTAGTGCAG | 8240 fluorescence intensity (a.u.)
TTGGTTGGTTGGTTGGTGTTTTGAGGCTTGGGTCGGCTTACGGAGTCACCTAGTGCAG | 17100 fluorescence intensity (a.u.)
TTGAGGCCCCTTAACTTGTTAATGAATTCGATTTTCGTCCCGGAGTCACCTAGTGCAG | 8200 fluorescence intensity (a.u.)
GTATTCATATGCCAATTAAATTTGCGTCAAGCTTTTTGTTCGGAGTCACCTAGTGCAG | 9080 fluorescence intensity (a.u.)
CCCAACCCCGTGCCGCGGCCTCGCCGATCGATCGATCGTGCGGAGTCACCTAGTGCAG | 8350 fluorescence intensity (a.u.)
ATAACCTACTCTCTCCGGTTTCATAATTCTTAACATATTGCGGAGTCACCTAGTGCAG | 9650 fluorescence intensity (a.u.)
TTTTCACGCTCAACTGCAATTTGTTATACACTTATACTAACGGAGTCACCTAGTGCAG | 9280 fluorescence intensity (a.u.)
AGTACTGCACTGCTCCTACCTTCTGCAAATCCAATCAATCCGGAGTCACCTAGTGCAG | 8950 fluorescence intensity (a.u.)
CATTCGTTGTCAATCTTTCTTGTAAGTATCTCAATACATCCGGAGTCACCTAGTGCAG | 10200 fluorescence intensity (a.u.)
CTTGTCGTCGCCTTCGCCATCCCCGCCGCCGTTCCCGCCACGGAGTCACCTAGTGCAG | 10800 fluorescence intensity (a.u.)
ATGACGCCGTTGACTTTTTAACAAACGTTTGACCATTCGTCGGAGTCACCTAGTGCAG | 21700 fluorescence intensity (a.u.)
CTTGCTTAGTGCAATAGCCATTCTACATTCTGTATCTTGACGGAGTCACCTAGTGCAG | 8740 fluorescence intensity (a.u.)
AGTTCGGTACTACTCCTACTACTACTACTACTACTACTACCGGAGTCACCTAGTGCAG | 10200 fluorescence intensity (a.u.)
GATTCCATTCTCTTATCGTTTTCCTCCCGAGCCGCTTCGTCGGAGTCACCTAGTGCAG | 8280 fluorescence intensity (a.u.)
GCACAGAGCATGCAAATTCCTTTCCGGCCCATTAGAAATTCGGAGTCACCTAGTGCAG | 8650 fluorescence intensity (a.u.)
GCTATCTTTGACCACGCCGCACTGTTGCCGCGCATGCACACGGAGTCACCTAGTGCAG | 9920 fluorescence intensity (a.u.)

7 successive records already listed:
Sequence | binding signal
TTGCCATATTAGCTCTCTGTTTCCATGGACTAATTAGCAACGGAGTCACCTAGTGCAG | 9080 fluorescence intensity (a.u.)
CAACCACCTCGCCTCGCCCAGACGCTGACGACTTCACTCCCGGAGTCACCTAGTGCAG | 11600 fluorescence intensity (a.u.)
ACTACCGCTTGAGCTCAAGTTTTGCCGCCACCACCGCAGCCGGAGTCACCTAGTGCAG | 8690 fluorescence intensity (a.u.)
CCCCAACCCACTCACTAACATATGTTTGACTAGTTTGTCACGGAGTCACCTAGTGCAG | 10100 fluorescence intensity (a.u.)
GTCAACCCATACACAACTTGATCTATGTATGTATTGTACGCGGAGTCACCTAGTGCAG | 9270 fluorescence intensity (a.u.)
CTCCTCGGGGCCGCCGCGCCGCGCCTGCCCGCGCCCGACTCGGAGTCACCTAGTGCAG | 10600 fluorescence intensity (a.u.)
TAATACGTTGTCCGCAAATTATACAATTCCTTTTGGCTGTCGGAGTCACCTAGTGCAG | 11100 fluorescence intensity (a.u.)

Additional results

Sequence | binding signal
TTATTTTACCTCTTTGTCCATGTTTAATTACAAGGAATTTCGGAGTCACCTAGTGCAG | 8480 fluorescence intensity (a.u.)
CTCTGGCCCTCTGCTATTGATGTGTGTGCTACTTGCAGCTCGGAGTCACCTAGTGCAG | 12800 fluorescence intensity (a.u.)
TTTCTTCCTTAATTTGTATCGATTCACCTAGATATGTTTCCGGAGTCACCTAGTGCAG | 8240 fluorescence intensity (a.u.)
TCTGTTATATTTTTAGCACTAGTCTAGATTTCTAGTACTACGGAGTCACCTAGTGCAG | 8060 fluorescence intensity (a.u.)
AATATAGTTGCTGATGCGCTGTCCAGGATGCCTGTTATACCGGAGTCACCTAGTGCAG | 9400 fluorescence intensity (a.u.)
GCTTCTCCGCCTTGGGCTTCTTCCCCGCCGGCGCCTTCTCCGGAGTCACCTAGTGCAG | 11600 fluorescence intensity (a.u.)
AGCTCACAGCTTGCATTGTACTAGTACACTGTACTACTCTCGGAGTCACCTAGTGCAG | 8030 fluorescence intensity (a.u.)
CCATTCGGCGTTCTTTTTCTTCTTGTCATTAATTAATTATCGGAGTCACCTAGTGCAG | 10600 fluorescence intensity (a.u.)
GCTTTCTAGAACACGTCCAAGTTGAGCATTGTTTCAGTGACGGAGTCACCTAGTGCAG | 8060 fluorescence intensity (a.u.)
CGGTCAGCCTTTTTTTTTACCCAAAATTTTTTGCTATTTTCGGAGTCACCTAGTGCAG | 13300 fluorescence intensity (a.u.)
TTGTAATTCTTTACCATTCTGCATCTTGGCTACAGAGTTTCGGAGTCACCTAGTGCAG | 8470 fluorescence intensity (a.u.)
ATTTTCTTATCTTTTCATAGACTACGACGTCACCACTATCCGGAGTCACCTAGTGCAG | 8320 fluorescence intensity (a.u.)
TGTGCCGTGACTCGATGTGCTCCTCCATCTCTTGCTGCAACGGAGTCACCTAGTGCAG | 8170 fluorescence intensity (a.u.)
GAACGTATCCTACGCACAAAGTCTTCTCGTGTACACGCCGCGGAGTCACCTAGTGCAG | 8120 fluorescence intensity (a.u.)
TATCCGTGCGCCTCAACTTTCCCACCACCACCGCGGTCTCCGGAGTCACCTAGTGCAG | 9540 fluorescence intensity (a.u.)
GATTTCTTTCTGCCGTCATCTTCGAATATCCATGACTCGCCGGAGTCACCTAGTGCAG | 9800 fluorescence intensity (a.u.)
CAGCTTGTCAATCGGGTCAACACGCCACGTCGGATGAAATCGGAGTCACCTAGTGCAG | 8210 fluorescence intensity (a.u.)
GGTGGCTTGGCGCTTTGATCTGATGCTGGTTGTAGTTGCTCGGAGTCACCTAGTGCAG | 8560 fluorescence intensity (a.u.)
TTATTCCTAGGTGAACTATTATTTTTTCTTTTTCTATTTTCGGAGTCACCTAGTGCAG | 11700 fluorescence intensity (a.u.)
TCCATATATTCACATGTACGCAATCATATAATTCATCCAACGGAGTCACCTAGTGCAG | 8240 fluorescence intensity (a.u.)
TACGAATAATCAGCCGTTTCACCACGCTTACTCTCTGAGACGGAGTCACCTAGTGCAG | 8150 fluorescence intensity (a.u.)
